Laboratory results reported in patent US5776944A, “7-(4-aminomethyl-3-methyloxyiminopyrroplidin-1-yl)-1-cyclopropyl-6-flu oro-4-oxo-1,4-dihydro-1,8-naphthyridine-3-carboxylic acid and the process for the preparation thereof” (LG Chemical Ltd., priority 1994, dated 1998).

Assay: Pharmacokinetic test
Conditions: rat, in vivo, 20 mg/kg, PO, SD rats (male)

O=C(O)c1cn(C2CC2)c2cc(N3CCNCC3)c(F)cc2c1=O [CFLX, ciprofloxacin, reference compound]
Cmax (read-out: Cmax (maximum blood concentration)): 1.34 ± 0.368 µg/mL | Tmax (read-out: Tmax (time showing maximum blood concentration)): 1.13 ± 0.605 h
